Substitutions are numbered along the chain they refer to. In names and notes the source's numbering stands. No constants are given. Whether binding was seen depends on the method and setting. Binding seen in cells or lysates may run through a third protein. Binding calls can cover weak binding; strength is not graded here. Blank lines part the entries; values can stand above or below the molecule they belong to.
Legend:
Experiment in all cases: co-IP; Xenopus laevis oocytes co-injected with 15 ng each mKCC3 (wild type or E289G) and rKCC2 cRNA, 3 days at 16 C; homogenate in 50 mM HEPES with protease inhibitors; anti-KCC3 or anti-KCC2 antibody overnight at 4 C, Protein A sepharose; Western blot for the other cotransporter; anti-GFP IgG as negative control
[1] = molecular target: T1, mouse K-Cl cotransporter-3 (KCC3a), wild type (mouse) (UniProt Q924N4)
T1 sequence: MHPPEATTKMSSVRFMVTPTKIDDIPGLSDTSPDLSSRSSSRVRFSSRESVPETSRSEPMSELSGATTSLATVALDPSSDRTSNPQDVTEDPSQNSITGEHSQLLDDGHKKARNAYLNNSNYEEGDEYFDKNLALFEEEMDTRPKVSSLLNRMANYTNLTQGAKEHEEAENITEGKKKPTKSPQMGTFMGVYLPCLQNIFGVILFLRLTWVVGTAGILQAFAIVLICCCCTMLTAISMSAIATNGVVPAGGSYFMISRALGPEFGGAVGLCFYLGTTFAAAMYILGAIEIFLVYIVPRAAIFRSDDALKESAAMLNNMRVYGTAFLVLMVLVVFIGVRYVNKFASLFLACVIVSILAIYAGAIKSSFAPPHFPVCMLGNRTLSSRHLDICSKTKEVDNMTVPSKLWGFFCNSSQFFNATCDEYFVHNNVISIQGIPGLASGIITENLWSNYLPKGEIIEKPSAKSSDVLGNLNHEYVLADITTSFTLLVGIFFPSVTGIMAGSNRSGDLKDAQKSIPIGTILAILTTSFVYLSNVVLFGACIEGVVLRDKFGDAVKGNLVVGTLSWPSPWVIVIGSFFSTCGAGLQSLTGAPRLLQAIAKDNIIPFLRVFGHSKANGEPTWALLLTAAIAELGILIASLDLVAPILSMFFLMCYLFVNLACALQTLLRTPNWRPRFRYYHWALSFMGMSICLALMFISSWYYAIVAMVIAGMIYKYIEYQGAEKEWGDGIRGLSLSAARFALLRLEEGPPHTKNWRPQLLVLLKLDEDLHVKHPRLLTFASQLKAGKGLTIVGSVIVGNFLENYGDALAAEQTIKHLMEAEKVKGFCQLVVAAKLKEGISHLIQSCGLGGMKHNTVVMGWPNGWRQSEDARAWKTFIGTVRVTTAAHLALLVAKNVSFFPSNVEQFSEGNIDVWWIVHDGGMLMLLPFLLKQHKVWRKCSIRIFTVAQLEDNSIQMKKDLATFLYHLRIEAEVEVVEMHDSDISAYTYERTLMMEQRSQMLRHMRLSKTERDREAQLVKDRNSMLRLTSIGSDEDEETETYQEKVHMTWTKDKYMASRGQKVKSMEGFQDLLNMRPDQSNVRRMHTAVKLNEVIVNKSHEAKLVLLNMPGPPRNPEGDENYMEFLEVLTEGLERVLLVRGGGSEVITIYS

[2] = molecular target: T2, mouse KCC3-E289G mutant (mouse) (UniProt Q924N4)
T2 sequence: T1 sequence with E289G

[3] = molecular target: rat K-Cl cotransporter KCC2 (rat)

- binding [1]: binds
- binding [2]: binds
Molecule: rat K-Cl cotransporter KCC2

- binding [3]: binds
B1: mouse K-Cl cotransporter-3 (KCC3a), wild type (protein, UniProt Q924N4-1 1-1150)
chain: T1 sequence

- binding [3]: binds
B2: mouse KCC3-E289G mutant (protein, UniProt Q924N4 1-1150)
chain: T1 sequence with E289G
